PubChem BioAssay AID652272 | Drosophila RNAi Screening Center – 2013

Assay: 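Genome-wide knock-down search for components of Hedgehog signalling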 (primary screen)
Cells: Drosophila clone 8 (Cl8) cells
Knock-down reagent: long dsRNA against Drosophila genes
Read-out: 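Firefly light from a Hedgehog-responsive ptc promoter reporter and Renilla reference light, both read on a plate reader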
Scale: firefly Hh reporter signal: higher = more ptc reporter light; Renilla reference signal: higher = more Renilla control light
Hit rule: 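Hit when the z-score averaged over two replicates is under -2 or over +3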
Meaning of the calls: active = hit: reporter lowered or raised; inactive = not a hit
The screen tested about 21,000 reagents; this is an unselected part of those that have a named target and a result. In the full data, 503 (2.4%) were called active. 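Raw plate light values, not normalised; calls rest on replicate z-scores that were not deposited; hits include reporter decreases as well as increases.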 A number with no mark means an inactive call. Not stated in the record: the amount of reagent, the time to read-out.

Dic4 (GeneID 40039) [DRSC10317]
- firefly Hh reporter signal, replicate 1: 1.33e5
- Renilla reference signal, replicate 1: 3322
- Renilla reference signal, replicate 2: 2885

eIF3a (GeneID 40563) [DRSC12339]
- firefly Hh reporter signal, replicate 1: 48325
- firefly Hh reporter signal, replicate 2: 74381
- Renilla reference signal, replicate 1: 2243
- Renilla reference signal, replicate 2: 2636

Ugt37E1 (GeneID 53512) [DRSC02248]
- firefly Hh reporter signal, replicate 1: 1.08e5
- firefly Hh reporter signal, replicate 2: 59968
- Renilla reference signal, replicate 1: 2924
- Renilla reference signal, replicate 2: 6153

elm (GeneID 40695) [DRSC12309]
- firefly Hh reporter signal, replicate 1: 1.35e5
- firefly Hh reporter signal, replicate 2: 87609
- Renilla reference signal, replicate 1: 4749
- Renilla reference signal, replicate 2: 3456

pea (GeneID 36561) [DRSC07120]
- firefly Hh reporter signal, replicate 1: 46096
- firefly Hh reporter signal, replicate 2: 31041
- Renilla reference signal, replicate 1: 3243
- Renilla reference signal, replicate 2: 2027

Su(H) (GeneID 34881) [DRSC03445]
- firefly Hh reporter signal, replicate 1: 71473
- firefly Hh reporter signal, replicate 2: 61387
- Renilla reference signal, replicate 1: 2282
- Renilla reference signal, replicate 2: 5527

RagA-B (GeneID 41071) [DRSC14450]
- firefly Hh reporter signal, replicate 1: 96197
- firefly Hh reporter signal, replicate 2: 57692
- Renilla reference signal, replicate 1: 4264
- Renilla reference signal, replicate 2: 2692

Sec8 (GeneID 40712) [DRSC12300]
- firefly Hh reporter signal, replicate 1: 1.43e5
- firefly Hh reporter signal, replicate 2: 1.27e5
- Renilla reference signal, replicate 1: 5144
- Renilla reference signal, replicate 2: 4762

CG8388 (GeneID 36763) [DRSC07157]
- firefly Hh reporter signal, replicate 1: 81735
- firefly Hh reporter signal, replicate 2: 49403
- Renilla reference signal, replicate 1: 2157
- Renilla reference signal, replicate 2: 3428

vex (GeneID 32033) [DRSC19481]
- firefly Hh reporter signal, replicate 1: 94233
- firefly Hh reporter signal, replicate 2: 2.27e5
- Renilla reference signal, replicate 1: 3040
- Renilla reference signal, replicate 2: 8517

vex (GeneID 32033) [DRSC19651]
- firefly Hh reporter signal, replicate 1: 1.11e5
- firefly Hh reporter signal, replicate 2: 3.31e5
- Renilla reference signal, replicate 1: 3257
- Renilla reference signal, replicate 2: 11574

Mnr (GeneID 33098) [DRSC20549]
- firefly Hh reporter signal, replicate 1: 64536
- firefly Hh reporter signal, replicate 2: 1.63e5
- Renilla reference signal, replicate 1: 2026
- Renilla reference signal, replicate 2: 7081

Mnr (GeneID 33098) [DRSC20550]
- firefly Hh reporter signal, replicate 1: 7.64e5
- firefly Hh reporter signal, replicate 2: 1.18e5
- firefly Hh reporter signal, replicate 3: 3.85e5
- Renilla reference signal, replicate 1: 5850
- Renilla reference signal, replicate 2: 3408

robo2 (GeneID 44522) [DRSC00377]
- firefly Hh reporter signal, replicate 1: 1.53e5
- firefly Hh reporter signal, replicate 2: 97041
- Renilla reference signal, replicate 1: 3484
- Renilla reference signal, replicate 2: 2689

robo2 (GeneID 44522) [DRSC00378]
- firefly Hh reporter signal, replicate 1: 1.12e5
- firefly Hh reporter signal, replicate 2: 74385
- Renilla reference signal, replicate 1: 2072
- Renilla reference signal, replicate 2: 1956

robo2 (GeneID 44522) [DRSC00686]
- firefly Hh reporter signal, replicate 1: 1.24e5
- firefly Hh reporter signal, replicate 2: 69493
- Renilla reference signal, replicate 1: 2955
- Renilla reference signal, replicate 2: 1862

robo2 (GeneID 44522) [DRSC00691]
- firefly Hh reporter signal, replicate 1: 57114
- firefly Hh reporter signal, replicate 2: 34877
- Renilla reference signal, replicate 1: 2555
- Renilla reference signal, replicate 2: 2380

Hsp68 (GeneID 42852) [DRSC16712]
- firefly Hh reporter signal, replicate 1: 5.71e5
- firefly Hh reporter signal, replicate 2: 1.14e5
- Renilla reference signal, replicate 1: 29844
- Renilla reference signal, replicate 2: 3282

Cdk12 (GeneID 40385) [DRSC11836]
- firefly Hh reporter signal, replicate 1: 79147
- firefly Hh reporter signal, replicate 2: 99056
- Renilla reference signal, replicate 1: 2912
- Renilla reference signal, replicate 2: 3748

SdhAL (GeneID 39348) [DRSC10539]
- firefly Hh reporter signal, replicate 1: 1.12e5
- firefly Hh reporter signal, replicate 2: 61216
- Renilla reference signal, replicate 1: 4516
- Renilla reference signal, replicate 2: 2419

chif (GeneID 34974) [DRSC03508]
- firefly Hh reporter signal, replicate 1: 63100
- firefly Hh reporter signal, replicate 2: 52821
- Renilla reference signal, replicate 1: 3248
- Renilla reference signal, replicate 2: 2203

CG17572 (GeneID 35182) [DRSC02629]
- firefly Hh reporter signal, replicate 1: 64390
- firefly Hh reporter signal, replicate 2: 44459
- Renilla reference signal, replicate 1: 1690
- Renilla reference signal, replicate 2: 4610

ms(2)35Ci (GeneID 49529) [DRSC01460]
- firefly Hh reporter signal, replicate 1: 1.36e5
- firefly Hh reporter signal, replicate 2: 3.19e5
- Renilla reference signal, replicate 1: 4277
- Renilla reference signal, replicate 2: 13296

pasi2 (GeneID 41113) [DRSC16380]
- firefly Hh reporter signal, replicate 1: 1.03e5
- firefly Hh reporter signal, replicate 2: 1.13e5
- Renilla reference signal, replicate 1: 3357
- Renilla reference signal, replicate 2: 3017

alpha4GT2 (GeneID 43124) [DRSC13732]
- firefly Hh reporter signal, replicate 1: 44784
- firefly Hh reporter signal, replicate 2: 1.52e5
- Renilla reference signal, replicate 1: 9812
- Renilla reference signal, replicate 2: 2497

alpha4GT2 (GeneID 43124) [DRSC15905]
- firefly Hh reporter signal, replicate 1: 5.01e5
- firefly Hh reporter signal, replicate 2: 1.29e5
- Renilla reference signal, replicate 1: 26034
- Renilla reference signal, replicate 2: 3416

Cnep1r1 (GeneID 3355167) [DRSC20620]
- firefly Hh reporter signal, replicate 1: 95062
- firefly Hh reporter signal, replicate 2: 2.38e5
- Renilla reference signal, replicate 1: 3501
- Renilla reference signal, replicate 2: 9239
